This passage reports crude mass and isolated mass results from patent publication US5696089A (Roche Vitamins Inc., priority 1995, dated 1997).

The series in a line: general procedure: Boc solid-phase peptide synthesis; Boc-Gly-PAM-resin; DCC; BOP reagent. Conditions: whole synthesis, scale 0.5 mmol.

Strings that start with PEPTIDE1 are HELM notation: dots part the residues, brackets hold end groups and non-standard residues.

For the substance “PEPTIDE1{H.V.D.A.I.F.T.N.S.Y.R.K.V.L.A.Q.L.S.A.R.K.L.L.Q.D.I.L.S.R.Q.Q.G}$$$$V2.0”, the crude mass was found to be 420 mg and the isolated mass turned out to be 34 mg.
